Measurements taken from PubChem BioAssay AID1487 (National Center for Advancing Translational Sciences (NCATS), 2009).
About 25 (0.01%) of roughly 200,000 compounds were called active. The inconclusive results got no clear call from the source; some entries with a clear call stand among them for comparison. The call rests on the fitted dose curve; in most records, active means well fitted inhibition curve with a large enough effect in the signal ratio, with a control signal flat (not every such curve was filed as active); inconclusive means small, poorly fitted or top-dose-only effect, or effect the other way, or a change in a side signal; inactive means flat fitted curve, though single readings scatter; the % refers to the signal ratio. Potencies beside an inconclusive call are fits to weak or partial responses and may not hold up.

experiment: qHTS Assay for Modulators of Lamin A Splicing; settings: HeLa LMNA splicing GFP/RFP minigene ratio, 48 h; ratio change, negative = inhibition: at 46.1 µM (top of the series) unless noted
Method in brief: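 Read-out is the ratio of GFP to DsRed2 object intensity, acquired by 488 nm laser-scanning cytometry on HeLa lamin A-EGFP minigene reporter cells. Compound incubation 48 hrs at 37 °C in Opti-MEM with 2% FBS; DMSO 0.5% final.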
On the % scale 0 is the no-effect control and ±100 the full control effect; potency means the concentration at half of the fitted maximal effect.

SMILES | ratio change, negative = inhibition | Potency
CN1CCN(S(=O)(=O)c2ccc3ccccc3c2)CC1 | inactive | –
COC(=O)c1ccccc1NC(=O)c1cnc2c(-c3cccc(C)c3)c(C)nn2c1C | inactive | –
O=C(O)c1ccccc1C(=O)NNc1cccc(Cl)n1 | inconclusive: 9.85% [at 46 µM] | –
CCS(=O)(=O)N1CC(=O)N(c2ccc(Cl)cc2)C(C)(C(=O)NC2CCCCCC2)C1 (stereo unspecified) | inconclusive: -8% [at 46 µM] | –
COc1ccc(CCNC(=O)C(C)n2c(=O)cc(C(F)(F)F)c3c(C)nn(C)c32)cc1OC (stereo unspecified) | inconclusive: -4.49% [at 46 µM] | –
Cc1cc(C)cc(C(=O)NCC(=O)OCC(=O)Nc2ccc(C)cc2Br)c1 | inactive | –
COc1ccc(OC)c2sc(N(Cc3cccnc3)C(=O)c3ccco3)nc12 | inactive | –
CN(C)c1ccc(CNC(=O)CN2CCSc3ccc(S(=O)(=O)N(C)C)cc32)cc1 | inactive | –
CCN(c1ccccc1)S(=O)(=O)c1nnc(NC(=O)COc2cccc(C)c2)s1 | inactive | –
COc1ccc(-c2csc(-c3[nH]cnc3N)n2)cc1 | inconclusive: 22.6% [at 46 µM] | –
CCN(CC)S(=O)(=O)c1ccc2nc(NC(=O)c3cncc(Br)c3)sc2c1 | inconclusive: -21.8% [at 46 µM] | –
Cc1cccn2c(=O)c(C(=O)NC(C)c3ccccc3)cnc12 (stereo unspecified) | inconclusive: 16.1% [at 46 µM] | –
Cc1noc(/C=C/c2ccco2)c1S(=O)(=O)N1CCC(C(=O)NC(C)c2ccccc2)CC1 (stereo unspecified) | inactive | –
CC1CN(c2nc(-c3ccc(Br)cc3)nnc2-c2ccccc2)CC(C)N1 (stereo unspecified) | – | inconclusive: 10 µM [inhibitor, partial curve]
O=C(c1ccco1)n1nc(-c2cccnc2)nc1NCc1ccco1 | inconclusive: 11.9% [at 46 µM] | –
COc1cc(-c2nnc(SCc3cc(=O)oc4cc(O)c(O)cc34)o2)cc(OC)c1OC | – | inconclusive: 20 µM [inhibitor, single point]
CCCCOC(=O)c1ccc(N)cc1 | inconclusive: 2.38% | –
CCOc1ccc2cc(S(=O)(=O)N3CCOCC3)ccc2c1 | inconclusive: -19.7% | –
CN1CCCN([C@@H](c2ccccc2)c2ccc(Cl)cc2)CC1 | inconclusive: -19.7% | –
COC(=O)c1ccc(CN2C(=O)NC3(CCCCC3)C2=O)cc1 | – | inconclusive: 0.02 µM [activator, full curve, poor fit]
CCN(CC)C(C(=O)Nc1ccc(C(C)C)cc1)c1ccc2c(c1)OCO2 (stereo unspecified) | inconclusive: 9.32% | –
S=c1nc[nH]c2c1ncn2C1CCCO1 (stereo unspecified) | inconclusive: -2.75% [at 46 µM] | –
CC(C)(C)c1ccc(C(=O)NCCc2csc(-c3ccc(Cl)cc3)n2)cc1 | inconclusive: -32.7% [at 46 µM] | –
COc1ccc(-c2cn3cccnc3n2)cc1NS(=O)(=O)c1ccccc1 | – | inconclusive: 12.6 µM [inhibitor, partial curve]
CCOC(=O)CSc1ccc(C(=O)Nc2ccc(Cl)cc2)cn1 | inconclusive: 18.8% [at 46 µM] | –
CC(C)Cn1c(N)c(C(=O)COC(=O)c2cc(C(F)(F)F)nc3ccccc23)c(=O)n(C)c1=O | – | inconclusive: 35.5 µM [falling, single point]

SMILES | ratio change, negative = inhibition | Potency
O=C(CC1N=C2c3ccccc3N=C(SCc3ccccc3Cl)N2C1=O)NCCc1ccccc1 (stereo unspecified) | inactive | –
COc1ccc(-c2cc(C(=O)NC3=NCCS3)c3ccccc3n2)cc1OC | – | inconclusive: 25.1 µM [inhibitor, single point]
CCc1cc2ccc(C)cc2nc1SCC(=O)NNC(=O)c1ccco1 | inactive | –
CN1CCN(C(=O)C2CCN(c3ncc(C(F)(F)F)cc3Cl)CC2)CC1 | – | inconclusive: 35.5 µM [rising, single point]
CCC(=O)Nc1ccc(C(=O)Cn2ncc(Cl)c(Cl)c2=O)cc1 | inconclusive: -43.8% [at 46 µM] | –
CN(CCNC(=O)c1cc2c(=O)n(C)c3ccccc3c2n1C)Cc1ccccc1 | inactive | –
Cc1cc(C)c2sc(NNC(=O)C3COc4ccccc4O3)nc2c1 (stereo unspecified) | inconclusive: -51.5% | –
COc1ccc(-c2csc3ncnc(Nc4cccc(OC)c4)c23)cc1 | – | inconclusive: 4.47 µM [inhibitor, full curve, poor fit]
COc1cc(OC)c(C2C3=C(CCCC3=O)Nc3nc4ccccc4n32)cc1OC (stereo unspecified) | inactive | –
CC(=O)N1CCCc2cc(S(=O)(=O)N3CCCC(C(=O)N4CCN(c5ccccc5)CC4)C3)ccc21 (stereo unspecified) | inconclusive: -17.2% [at 46 µM] | –
CCC(=O)N1CCN(c2ccc(NC(=S)NC(=O)c3cccc([N+](=O)[O-])c3)cc2)CC1 | inactive | –
COc1ccc(N2CCN(C(=O)/C=C/c3ccco3)CC2)cc1 | inconclusive: -17.6% [at 46 µM] | –
Nc1nc(SCC(=O)Nc2ccc(Br)cc2F)n[nH]1 | inactive | –
Cc1ccc(C)c(N2CCN(S(=O)(=O)c3ccc4c(c3)C(C(C)C)C(=O)N4)CC2)c1 (stereo unspecified) | inactive | –
CCCCCCCn1c(=N)n(CC(O)c2ccco2)c2ccccc21 (stereo unspecified) | inconclusive: -12.7% [at 46 µM] | –
CC1CC(C)CN(C(=O)CSc2ccsc2[N+](=O)[O-])C1 (stereo unspecified) | inconclusive: -2.4% [at 9.22 µM] | –
N#C/C(=C(/O)COC(=O)CSc1ccc2ccccc2c1)c1nc2ccccc2[nH]1 | inactive | –
Cc1ccc(O)c(C2=Nc3ccccc3C2(C)C)c1 | inconclusive: -33.4% [at 46 µM] | –
N#C/C(=N\Nc1cccc(F)c1)C(=N)N1CCCCCC1 | inconclusive: 26% [at 46 µM] | –
CC(=O)OCCn1c2nc(=O)[nH]c(=O)c-2nc2cc(C)c(C)cc21 | inconclusive: 9.18% [at 46 µM] | –
Cc1ccnc(NC(=S)NC(=O)c2cncc(Br)c2)c1 | inactive | –
CC(C)OCCCNC(=O)C(=O)Nc1c2c(nn1-c1ccccc1)CS(=O)(=O)C2 | inconclusive: 7.95% [at 46 µM] | –
CCc1ccc(OCCOCC(O)CNC(C)(C)C)cc1 (stereo unspecified) | inconclusive: -3.72% | –
COC(=O)CNC(=O)CSc1nc(N)cc(=O)[nH]1 | inactive | –
CN(C)S(=O)(=O)c1ccc(Cl)c(NC(=O)CSc2nc3c(cc2C#N)C(=O)CCC3)c1 | – | inconclusive: 10 µM [fluorescent, partial curve]

Rewritten field by field: two of the compounds above.
O=C(CC1N=C2c3ccccc3N=C(SCc3ccccc3Cl)N2C1=O)NCCc1ccccc1 (stereo unspecified)
  ratio change, negative = inhibition: inactive
COc1ccc(-c2cc(C(=O)NC3=NCCS3)c3ccccc3n2)cc1OC
  Potency: inconclusive: 25.1 µM [inhibitor, single point]
